Data as given in PubChem BioAssay AID2417 (National Center for Advancing Translational Sciences (NCATS), 2010).
The whole screen tested about 140,000 compounds, of which about 4,300 (3.1%) were called active. Inconclusive results, whose numbers are uncertain, are shown with a selection of clear calls.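 The calls were made as follows: active = readout at or below -70, meaning at least 70% loss of cells showing the perinucleolar compartment, a nuclear body marking cancer cells; inconclusive = readout between -30 and a set limit; inactive = the rest.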

Assay: High Content Assay for Compounds that inhibit the Assembly of the Perinucleolar Compartment;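 also: plate controls were DMSO wells for no effect and camptothecin positive control wells for full effect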
Details: PC3M PTB-GFP, PNC prevalence imaging, 16 h; at 10 µM; hits give low values
Procedure, shortened: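 Read-out is percentage of cells bearing a perinucleolar compartment, from automated 20x imaging of fixed, Hoechst-stained PC3M PTB-GFP cells. Cells were seeded 4 h, then exposed 16 h to compound (23 nl of library stock) in duplicate plates.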

Which activity change (PNC), negative = inhibition does the source give for `Cc1cccc(-n2ccnc2SCC(=O)Nc2ccc3c(c2)OCCO3)c1` here?
The activity change (PNC), negative = inhibition was inconclusive: -46.8%.

For `O=C(NC1CCS(=O)(=O)C1)c1cccc(S(=O)(=O)N2CCCCC2)c1` (stereo not drawn), which activity change (PNC), negative = inhibition is on record?
The activity change (PNC), negative = inhibition was inconclusive: -40.8%.

For `CC(=O)Nc1ccc(N2CCCCC2)cc1`, which activity change (PNC), negative = inhibition is on record?
Its activity change (PNC), negative = inhibition is inconclusive: -35.3%.

For `COc1ccc(OC)c(-c2cn(S(=O)(=O)c3ccccc3)nc2N)c1`, which activity change (PNC), negative = inhibition is on record?
The activity change (PNC), negative = inhibition was inconclusive: -44.7%.

With `Cc1nc(SCC(=O)OCc2ccccc2)c2c(=O)n(C)c(=O)n(C)c2n1` as the compound, how does the activity change (PNC), negative = inhibition read?
The activity change (PNC), negative = inhibition was inactive: 6.95%.

With `COC(=O)c1cc(NC(=O)CC2SC(=Nc3ccccc3)N(CCc3c[nH]c4ccccc34)C2=O)cc(C(=O)OC)c1` (stereo not drawn) as the compound, how does the activity change (PNC), negative = inhibition read?
The activity change (PNC), negative = inhibition was inactive: -19.7%.

Which activity change (PNC), negative = inhibition does the source give for `COc1cccc(/C=N/Nc2nc3ccccc3n3cnnc23)c1` here?
The activity change (PNC), negative = inhibition was inactive: 64.5%.

For `COCCSc1ccccc1C(=O)Nc1cc(C)ccn1`, which activity change (PNC), negative = inhibition is on record?
Its activity change (PNC), negative = inhibition is inconclusive: -30.8%.

For `CC(=O)OCC(=O)Nc1ccc(N=Nc2ccccc2)cc1`, which activity change (PNC), negative = inhibition is on record?
The activity change (PNC), negative = inhibition was inactive: -19.3%.

With `O=C1C2C3CCC(C3)C2C(=O)N1Cc1ccco1` (stereo not drawn) as the compound, how does the activity change (PNC), negative = inhibition read?
The activity change (PNC), negative = inhibition was inactive: 27.6%.

Which activity change (PNC), negative = inhibition does the source give for `O=C(Nc1ccc(Cl)cc1)c1cc2nc(C3CC3)cc(C(F)(F)F)n2n1` here?
The activity change (PNC), negative = inhibition was inconclusive: -34.2%.

Which activity change (PNC), negative = inhibition does the source give for `Cc1nn(-c2ccc(F)cc2)c2sc(C(=O)N3CCCCCC3)cc12` here?
The activity change (PNC), negative = inhibition was inactive: 9.78%.

With `CC(C)CCOc1ccc(C(=O)O)cc1` as the compound, how does the activity change (PNC), negative = inhibition read?
Its activity change (PNC), negative = inhibition is inconclusive: -50.2%.

Which activity change (PNC), negative = inhibition does the source give for `COCCNc1c([N+](=O)[O-])c(=O)n(-c2ccccc2)c2ccccc12` here?
Its activity change (PNC), negative = inhibition is inactive: 19.6%.

Which activity change (PNC), negative = inhibition does the source give for `COc1ccc(OCC(=O)NC(=S)N2CCCc3ccccc32)cc1` here?
The activity change (PNC), negative = inhibition was inconclusive: -32.1%.

Which activity change (PNC), negative = inhibition does the source give for `Cc1cccc(-n2c(-c3csc(C)c3C)n[nH]c2=S)c1` here?
Its activity change (PNC), negative = inhibition is inactive: 15.8%.

Which activity change (PNC), negative = inhibition does the source give for `CCOC(=O)C1CCN(c2nc3ccccc3nc2C(C#N)C(=O)NCCc2ccccc2)CC1` (stereo not drawn) here?
The activity change (PNC), negative = inhibition was inactive: 22.3%.

With `O=C(CSc1ccc2c(c1)OCCO2)NC(=O)NC1CCCC1` as the compound, how does the activity change (PNC), negative = inhibition read?
The activity change (PNC), negative = inhibition was active: -117%.

For `CN(C)S(=O)(=O)N1CCN(CC(=O)Nc2cc(Cl)ccc2Cl)CC1`, which activity change (PNC), negative = inhibition is on record?
Its activity change (PNC), negative = inhibition is inconclusive: -43.5%.

Which activity change (PNC), negative = inhibition does the source give for `Cn1c2ccccc2n2c(=O)c(=O)n(CC(=O)c3ccc(Cl)cc3)nc12` here?
Its activity change (PNC), negative = inhibition is inconclusive: -30.4%.

Which activity change (PNC), negative = inhibition does the source give for `Cc1cccc(N2CC(C(=O)OCC(=O)c3ccc(OC(=O)c4cccs4)cc3)CC2=O)c1C` (stereo not drawn) here?
The activity change (PNC), negative = inhibition was active: -83.1%.

For `CCn1cc(C(=O)N2CCCc3ccccc32)c2cc(OC)c(OC)cc2c1=O`, which activity change (PNC), negative = inhibition is on record?
Its activity change (PNC), negative = inhibition is inconclusive: -58.9%.

Which activity change (PNC), negative = inhibition does the source give for `Cc1ccc(C2CC(c3ccc(C)cc3)n3nc(N)nc3N2)cc1` (stereo not drawn) here?
Its activity change (PNC), negative = inhibition is inconclusive: -42.8%.

With `CC(/C=C1\N=C(SCc2ccccc2)SC1=O)=C\c1ccccc1` as the compound, how does the activity change (PNC), negative = inhibition read?
Its activity change (PNC), negative = inhibition is inconclusive: -40.5%.

With `C=CCSc1nc2ccccc2n1Cc1nnc(-c2cccs2)o1` as the compound, how does the activity change (PNC), negative = inhibition read?
The activity change (PNC), negative = inhibition was inconclusive: -56.4%.

For `COCc1cc(C)n(CC(=O)N/N=C/c2ccc(-c3ccc(Cl)c(C(=O)O)c3)o2)c(=O)c1C#N`, which activity change (PNC), negative = inhibition is on record?
The activity change (PNC), negative = inhibition was inactive: 25%.

For `C=CCn1nc([N+](=O)[O-])nc1Sc1cccc2cccnc12`, which activity change (PNC), negative = inhibition is on record?
Its activity change (PNC), negative = inhibition is inconclusive: -66.7%.

With `O=c1cc(N2CCOCC2)[nH]c(=O)n1-c1ccc(Br)cc1` as the compound, how does the activity change (PNC), negative = inhibition read?
Its activity change (PNC), negative = inhibition is inconclusive: -37.6%.

With `Cc1[nH]c(=O)c(C#N)c2c1CCCC2` as the compound, how does the activity change (PNC), negative = inhibition read?
Its activity change (PNC), negative = inhibition is inconclusive: -51.1%.

With `CCOC(=O)C1CCCN(C(=O)c2sc3nc(C)nc(N4CCOCC4)c3c2C)C1` (stereo not drawn) as the compound, how does the activity change (PNC), negative = inhibition read?
The activity change (PNC), negative = inhibition was inconclusive: -44.8%.

Which activity change (PNC), negative = inhibition does the source give for `c1nc(NC2CCCCC2)c2[nH]cnc2n1` here?
The activity change (PNC), negative = inhibition was inconclusive: -35.8%.

With `COc1ccccc1N(C(C)=O)c1nc(C)cc(C)c1C#N` as the compound, how does the activity change (PNC), negative = inhibition read?
The activity change (PNC), negative = inhibition was inconclusive: -43.4%.

Which activity change (PNC), negative = inhibition does the source give for `O=c1[nH]c(-c2ccco2)nc2sc3c(c12)CCCC3` here?
Its activity change (PNC), negative = inhibition is active: -116%.

With `COC(=O)NNC(=S)NCc1ccccc1` as the compound, how does the activity change (PNC), negative = inhibition read?
Its activity change (PNC), negative = inhibition is inconclusive: -32.6%.

For `O=C(O)COc1ccc2occ(C(=O)c3ccccc3)c2c1`, which activity change (PNC), negative = inhibition is on record?
The activity change (PNC), negative = inhibition was inconclusive: -39.9%.

With `O=C(NCCCN1CCCC1)c1cccc(N2CCCC2=O)c1` as the compound, how does the activity change (PNC), negative = inhibition read?
Its activity change (PNC), negative = inhibition is inconclusive: -56.4%.

Which activity change (PNC), negative = inhibition does the source give for `CC(C)(C)C(=O)Nc1nc(=S)ss1` here?
The activity change (PNC), negative = inhibition was inactive: 29.2%.

For `O=C(C1CCC1)N1CCc2cc(S(=O)(=O)Nc3ccc4c(c3)OCCO4)ccc21`, which activity change (PNC), negative = inhibition is on record?
The activity change (PNC), negative = inhibition was inactive: -13.3%.

For `Oc1ccc(N=Nc2c(O)ccc3ccccc23)cc1`, which activity change (PNC), negative = inhibition is on record?
Its activity change (PNC), negative = inhibition is inconclusive: -68.7%.

With `CCC(C)N(C)Cc1cccc(C2(O)CCN(S(=O)(=O)c3ccc(F)c(C)c3)CC2)c1` (stereo not drawn) as the compound, how does the activity change (PNC), negative = inhibition read?
Its activity change (PNC), negative = inhibition is active: -113%.

Which activity change (PNC), negative = inhibition does the source give for `O=C(Cc1ccc(Br)cc1)N1CCN(c2ccccc2)CC1` here?
The activity change (PNC), negative = inhibition was inconclusive: -40.6%.

With `CCOc1ccc(OCC)c(NC(=O)C2CCN(S(=O)(=O)c3cnc[nH]3)CC2)c1` as the compound, how does the activity change (PNC), negative = inhibition read?
The activity change (PNC), negative = inhibition was inactive: -9.32%.

Which activity change (PNC), negative = inhibition does the source give for `CN1CCn2c1nc(N1CCCCC1)nc2=O` here?
The activity change (PNC), negative = inhibition was inactive: -17.3%.

With `O=C(OCc1nnc(-c2ccc(Cl)cc2)o1)c1ccncc1` as the compound, how does the activity change (PNC), negative = inhibition read?
The activity change (PNC), negative = inhibition was inactive: 27.8%.

Which activity change (PNC), negative = inhibition does the source give for `CC(C)(C)n1ncc2c(=O)n(CC(=O)Nc3ccc4c(c3)OCO4)cnc21` here?
Its activity change (PNC), negative = inhibition is inactive: -15.1%.

With `CCOC(=O)c1c(NC(=O)Cn2nc(C(F)(F)F)cc2C)sc2c1CCC2` as the compound, how does the activity change (PNC), negative = inhibition read?
Its activity change (PNC), negative = inhibition is inactive: 36.1%.

With `CCOC(=O)C(C)Oc1ccc2c(C)cc(=O)oc2c1C(C)=O` (stereo not drawn) as the compound, how does the activity change (PNC), negative = inhibition read?
The activity change (PNC), negative = inhibition was inconclusive: -49.6%.

For `Cc1ccccc1NC(=O)Nc1ccccc1Br`, which activity change (PNC), negative = inhibition is on record?
The activity change (PNC), negative = inhibition was inconclusive: -48.3%.

Which activity change (PNC), negative = inhibition does the source give for `CN(C1CCCCC1)S(=O)(=O)c1ccc(Cl)c(C(=O)O)c1` here?
The activity change (PNC), negative = inhibition was inconclusive: -31.4%.

With `CC1CCN(S(=O)(=O)c2ccc(C(=O)NCc3ccc4c(c3)OCO4)cc2)CC1` as the compound, how does the activity change (PNC), negative = inhibition read?
Its activity change (PNC), negative = inhibition is inconclusive: -56.4%.

Which activity change (PNC), negative = inhibition does the source give for `CN(C)c1ccc(Nc2c3c4c(cccc4n(C)c2=O)C(=O)c2ccccc2-3)cc1` here?
The activity change (PNC), negative = inhibition was inconclusive: -43.5%.

For `COc1cc(NC(=O)COc2ccc(Cl)cc2)ccc1-c1cc2ccccc2oc1=O`, which activity change (PNC), negative = inhibition is on record?
The activity change (PNC), negative = inhibition was inconclusive: -54.7%.

With `O=C(COC(=O)c1ccccc1O)Nc1cccnc1Cl` as the compound, how does the activity change (PNC), negative = inhibition read?
Its activity change (PNC), negative = inhibition is inconclusive: -59.8%.

Which activity change (PNC), negative = inhibition does the source give for `O=C(CSc1ccccn1)Nc1nc2ccccc2s1` here?
The activity change (PNC), negative = inhibition was inactive: 33.9%.

With `CCOC(=O)C1CCN(c2c(NCc3ccc(C(=O)NC(C)CC)cc3)c(=O)c2=O)CC1` (stereo not drawn) as the compound, how does the activity change (PNC), negative = inhibition read?
Its activity change (PNC), negative = inhibition is inactive: 4.95%.

With `C=C1C2(C(=O)NCc3ccco3)CCC(C2)C1(C)C` (stereo not drawn) as the compound, how does the activity change (PNC), negative = inhibition read?
The activity change (PNC), negative = inhibition was inconclusive: -48.1%.

With `COc1ccc(C(=O)c2ccccc2)c2c(O)ccc(C(=O)c3ccccc3)c12` as the compound, how does the activity change (PNC), negative = inhibition read?
The activity change (PNC), negative = inhibition was inactive: -26.4%.

With `CCCCOc1ccc(C(=O)Nc2ccc(N3CCN(C(=O)C(C)C)CC3)cc2)cc1` as the compound, how does the activity change (PNC), negative = inhibition read?
The activity change (PNC), negative = inhibition was inconclusive: -40.1%.
